Source: paper PMC7906190
These are yes or no findings as the source states them, for the method shown. For some assays here: Binding seen in cells or lysates may run through a third protein. Some results given as binding are weak or reduced against the parent protein; the word gives no strength.

Chains of the proteins cited; added tags and fusions are not shown. Lines headed by an entry give the natural chain unless they say otherwise; changes in a name come on top.
UniProt P10275: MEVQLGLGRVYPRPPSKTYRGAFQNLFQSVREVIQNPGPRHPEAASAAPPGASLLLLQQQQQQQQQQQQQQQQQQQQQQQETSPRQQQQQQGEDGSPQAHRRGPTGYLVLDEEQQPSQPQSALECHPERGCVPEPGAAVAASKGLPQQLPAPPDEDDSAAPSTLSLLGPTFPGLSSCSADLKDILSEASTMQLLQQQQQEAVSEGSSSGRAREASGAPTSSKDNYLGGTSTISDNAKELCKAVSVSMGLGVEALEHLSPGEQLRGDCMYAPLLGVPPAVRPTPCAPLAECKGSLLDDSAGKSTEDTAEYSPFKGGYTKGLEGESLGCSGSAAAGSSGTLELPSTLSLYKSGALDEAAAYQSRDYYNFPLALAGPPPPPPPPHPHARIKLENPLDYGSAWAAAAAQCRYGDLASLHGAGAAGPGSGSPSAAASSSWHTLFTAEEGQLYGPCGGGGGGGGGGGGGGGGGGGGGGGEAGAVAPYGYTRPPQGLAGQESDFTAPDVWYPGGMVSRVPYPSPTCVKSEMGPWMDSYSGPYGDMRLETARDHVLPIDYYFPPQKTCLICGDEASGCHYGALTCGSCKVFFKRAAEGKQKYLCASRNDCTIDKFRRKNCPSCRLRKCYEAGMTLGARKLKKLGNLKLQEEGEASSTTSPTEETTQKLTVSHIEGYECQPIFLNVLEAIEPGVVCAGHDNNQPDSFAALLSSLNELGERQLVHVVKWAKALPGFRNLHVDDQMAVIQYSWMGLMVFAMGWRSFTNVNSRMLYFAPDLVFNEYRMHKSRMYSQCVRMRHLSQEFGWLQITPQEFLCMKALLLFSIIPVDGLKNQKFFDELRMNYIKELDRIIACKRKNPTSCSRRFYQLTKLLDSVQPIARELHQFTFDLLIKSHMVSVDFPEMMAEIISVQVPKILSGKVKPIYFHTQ
UniProt O14746: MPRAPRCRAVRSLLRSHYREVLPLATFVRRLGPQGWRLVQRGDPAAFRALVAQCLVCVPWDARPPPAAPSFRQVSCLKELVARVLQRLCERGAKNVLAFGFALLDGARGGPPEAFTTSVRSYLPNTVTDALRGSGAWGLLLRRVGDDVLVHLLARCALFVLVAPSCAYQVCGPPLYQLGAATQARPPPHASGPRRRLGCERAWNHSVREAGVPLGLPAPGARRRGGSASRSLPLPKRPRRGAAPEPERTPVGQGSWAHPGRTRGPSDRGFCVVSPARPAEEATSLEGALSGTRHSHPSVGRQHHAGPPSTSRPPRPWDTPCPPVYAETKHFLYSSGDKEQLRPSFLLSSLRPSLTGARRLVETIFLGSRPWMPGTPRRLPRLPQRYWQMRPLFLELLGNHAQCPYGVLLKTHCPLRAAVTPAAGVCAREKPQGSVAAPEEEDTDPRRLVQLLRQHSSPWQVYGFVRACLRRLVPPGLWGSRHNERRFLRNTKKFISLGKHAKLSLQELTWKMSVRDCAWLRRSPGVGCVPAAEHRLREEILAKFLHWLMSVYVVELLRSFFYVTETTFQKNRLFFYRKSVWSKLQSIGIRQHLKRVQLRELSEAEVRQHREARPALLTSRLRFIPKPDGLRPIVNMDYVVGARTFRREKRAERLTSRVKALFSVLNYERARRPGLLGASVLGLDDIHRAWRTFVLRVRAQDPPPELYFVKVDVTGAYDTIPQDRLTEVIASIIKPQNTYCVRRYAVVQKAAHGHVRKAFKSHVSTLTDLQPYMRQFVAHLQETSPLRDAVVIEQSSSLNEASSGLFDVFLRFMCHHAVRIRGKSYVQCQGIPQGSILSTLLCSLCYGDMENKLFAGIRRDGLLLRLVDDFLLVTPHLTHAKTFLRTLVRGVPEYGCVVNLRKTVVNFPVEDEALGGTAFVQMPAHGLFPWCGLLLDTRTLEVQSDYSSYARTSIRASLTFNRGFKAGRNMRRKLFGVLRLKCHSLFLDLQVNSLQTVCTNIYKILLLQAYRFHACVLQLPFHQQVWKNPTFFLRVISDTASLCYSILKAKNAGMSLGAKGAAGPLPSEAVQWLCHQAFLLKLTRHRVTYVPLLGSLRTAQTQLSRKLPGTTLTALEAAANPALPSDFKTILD

Experiments:
[1] = target: androgen receptor (human (endogenous in RWPE-1 and WPMY-1)) (UniProt P10275); experiment: flow cytometry on cells; fixed/permeabilized RWPE-1 and WPMY-1 cells, 1 h at room temperature with 1 ug anti-AR antibody or isotype control, then FITC-conjugated GV1001 for 30 min on ice; MFI of FITC; only the binder purified
[2] = target: androgen receptor (human (endogenous in RWPE-1 and WPMY-1)) (UniProt P10275); experiment: co-IP; RWPE-1 and WPMY-1 cells treated with GV-FITC (100 uM) for 1 h at 37 C; lysates incubated with anti-AR antibody on Dynabeads Protein G; GV-FITC in the eluate read in a fluorometer (ex 488 nm, em 525 nm); only the binder purified

- binding [1]: binds
- binding [2]: binds
B1: FITC-conjugated GV1001 (peptide, UniProt O14746 611-626)
peptide: EARPALLTSRLRFIPK
modifications: FITC-conjugated (position not given)
